Test results as given in paper PMC10362638.
Results are given in words; binding and its absence hold for the method and conditions named. In cells and extracts the contact can be indirect. These calls come from enrichment with a bait or labelling near it, and not all partners need be listed.

Sequences of proteins named here, by UniProt entry; tags and fusion partners are left off. Residues count along the entry.
UniProt P11362, residues 22-822: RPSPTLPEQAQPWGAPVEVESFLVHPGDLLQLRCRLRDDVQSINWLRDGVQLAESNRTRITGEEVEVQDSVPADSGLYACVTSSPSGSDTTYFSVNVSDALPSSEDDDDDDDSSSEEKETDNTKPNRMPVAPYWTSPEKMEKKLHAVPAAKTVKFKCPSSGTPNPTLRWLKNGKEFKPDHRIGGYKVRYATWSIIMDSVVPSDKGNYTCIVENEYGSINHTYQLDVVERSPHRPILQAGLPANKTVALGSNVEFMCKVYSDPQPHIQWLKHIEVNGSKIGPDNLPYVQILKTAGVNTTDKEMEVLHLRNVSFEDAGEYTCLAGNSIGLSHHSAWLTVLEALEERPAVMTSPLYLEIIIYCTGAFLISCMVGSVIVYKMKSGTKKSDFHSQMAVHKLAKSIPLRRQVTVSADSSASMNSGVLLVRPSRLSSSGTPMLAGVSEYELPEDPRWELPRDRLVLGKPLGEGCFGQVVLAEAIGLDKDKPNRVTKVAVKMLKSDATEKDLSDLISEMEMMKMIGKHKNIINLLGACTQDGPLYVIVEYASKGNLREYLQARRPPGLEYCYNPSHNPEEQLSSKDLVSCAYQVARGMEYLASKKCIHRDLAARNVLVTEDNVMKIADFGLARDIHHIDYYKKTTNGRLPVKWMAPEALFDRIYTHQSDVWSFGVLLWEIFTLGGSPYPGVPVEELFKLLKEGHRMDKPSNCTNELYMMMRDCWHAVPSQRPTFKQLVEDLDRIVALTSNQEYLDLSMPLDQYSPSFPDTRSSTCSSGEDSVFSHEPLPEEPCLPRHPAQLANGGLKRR
UniProt P22455, residues 22-802: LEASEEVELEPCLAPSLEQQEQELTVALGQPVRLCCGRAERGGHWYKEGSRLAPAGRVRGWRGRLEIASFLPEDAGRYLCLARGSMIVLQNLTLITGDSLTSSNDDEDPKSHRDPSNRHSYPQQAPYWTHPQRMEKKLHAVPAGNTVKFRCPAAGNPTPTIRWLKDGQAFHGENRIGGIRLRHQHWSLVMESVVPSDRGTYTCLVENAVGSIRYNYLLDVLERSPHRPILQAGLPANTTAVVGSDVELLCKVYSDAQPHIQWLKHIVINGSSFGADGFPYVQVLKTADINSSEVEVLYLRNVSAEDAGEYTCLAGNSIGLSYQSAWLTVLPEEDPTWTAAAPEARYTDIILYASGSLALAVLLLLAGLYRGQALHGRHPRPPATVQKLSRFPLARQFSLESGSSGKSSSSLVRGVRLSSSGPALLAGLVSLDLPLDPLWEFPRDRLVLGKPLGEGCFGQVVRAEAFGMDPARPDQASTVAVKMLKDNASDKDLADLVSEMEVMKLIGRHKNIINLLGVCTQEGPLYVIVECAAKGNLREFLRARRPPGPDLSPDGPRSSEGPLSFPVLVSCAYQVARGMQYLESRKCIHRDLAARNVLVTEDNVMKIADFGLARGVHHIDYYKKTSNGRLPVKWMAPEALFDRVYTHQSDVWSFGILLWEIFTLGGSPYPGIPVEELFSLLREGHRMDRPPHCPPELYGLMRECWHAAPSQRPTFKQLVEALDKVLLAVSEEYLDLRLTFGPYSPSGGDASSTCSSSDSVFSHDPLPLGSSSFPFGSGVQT

Molecular target: SBP-FGFR1 (wild type fibroblast growth factor receptor 1 tagged N-terminally with streptavidin binding peptide) (UniProt P11362)
Test: affinity purification with mass spectrometry; serum-starved (4 h) U2OS-SBP-R1 and U2OS-SBP-R1.GF cells lysed in 50 mM Tris, 150 mM NaCl, 1 mM EDTA, 0.1% Nonidet P-40, pH 8.0; streptavidin-agarose overnight at 4 °C; label-free quantitative comparative MS; U2OS-R1 (untagged FGFR1) as control

Row | Molecule | binding
1 | endogenous FGFR4 (from UniProt P22455 22-802) (receptor) | binds
2 | endogenous glypican-1 (protein, UniProt P35052 24-530) DPASKSRSCGEVRQIYGAKGFSLSDVPQAEISGEHLRICPQGYTCCTSEMEENLANRSHAELETALRDSSRVLQAMLATQLRSFDDHFQHLLNDSERTLQATFPGAFGELYTQNARAFRDLYSELRLYYRGANLHLEETLAEFWARLLERLFKQLHPQLLLPDDYLDCLGKQAEALRPFGEAPRELRLRATRAFVAARSFVQGLGVASDVVRKVAQVPLGPECSRAVMKLVYCAHCLGVPGARPCPDYCRNVLKGCLANQADLDAEWRNLLDSMVLITDKFWGTSGVESVIGSVHTWLAEAINALQDNRDTLTAKVIQGCGNPKVNPQGPGPEEKRRRGKLAPRERPPSGTLEKLVSEAKAQLRDVQDFWISLPGTLCSEKMALSTASDDRCWNGMARGRYLPEVMGDGLANQINNPEVEVDITKPDMTIRQQIMQLKIMTNRLRSAYNGNDVDFQDASDDGSGSGSGDGCLDDLCSRKVSRKSSSSRTPLTHALPGLSEQEGQKTS | binds
